Our source for the binding values is publication PMC3025917.

Results are given in words; binding and its absence hold for the method and conditions named. In cells and extracts the contact can be indirect. Some results given as binding are weak or reduced against the parent protein; the word gives no strength. Sequences can lack the tags named with a protein.

Experiment [1] has as its target T1, TAP-tagged Bur2 (S. cerevisiae) (UniProt Q05949).
T1 sequence: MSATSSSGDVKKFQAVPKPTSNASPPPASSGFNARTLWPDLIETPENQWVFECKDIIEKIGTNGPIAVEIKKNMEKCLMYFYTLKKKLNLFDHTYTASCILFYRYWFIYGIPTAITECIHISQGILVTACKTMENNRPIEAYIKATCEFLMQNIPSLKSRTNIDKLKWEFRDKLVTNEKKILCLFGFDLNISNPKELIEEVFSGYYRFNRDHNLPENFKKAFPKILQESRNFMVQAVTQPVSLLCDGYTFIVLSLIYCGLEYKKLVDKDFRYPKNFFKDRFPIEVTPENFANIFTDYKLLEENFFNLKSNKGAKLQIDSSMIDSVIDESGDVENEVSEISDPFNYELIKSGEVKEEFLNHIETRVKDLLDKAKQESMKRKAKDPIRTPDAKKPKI
In words: co-IP; initial co-immunoprecipitations, before in vivo formaldehyde cross-linking was introduced; Bur2-TAP strains with galactose-induced 6×His-Cus2; parallel Cus2-His or Bur2-TAP immunoprecipitates examined by western.

Experiment [2] deals with T1, TAP-tagged Bur2 (S. cerevisiae). Kind of experiment: co-IP; in vivo cross-linking with 1% formaldehyde for 15 minutes; whole cell extracts in 50 mM HEPES-KOH pH 7.5, 140 mM NaCl, 1 mM EDTA, 1% Triton-X, 0.1% deoxycholate; incubated 2.5 hours at 4°C with IgG Sepharose (Bur2-TAP) or NiNTA beads (Cus2-His); western with anti-TAP and anti-His.
The target of experiment [3] is T2, 6×His epitope-tagged Cus2 (S. cerevisiae) (UniProt P53830).
T2 sequence: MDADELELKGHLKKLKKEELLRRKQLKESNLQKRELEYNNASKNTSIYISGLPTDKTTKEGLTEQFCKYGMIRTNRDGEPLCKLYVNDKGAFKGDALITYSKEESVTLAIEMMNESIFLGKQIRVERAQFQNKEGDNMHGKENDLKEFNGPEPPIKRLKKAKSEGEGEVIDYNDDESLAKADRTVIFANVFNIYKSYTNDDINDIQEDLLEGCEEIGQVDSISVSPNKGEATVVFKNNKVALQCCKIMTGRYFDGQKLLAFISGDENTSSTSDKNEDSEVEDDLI
The experiment is described as above.

In experiment [4] the target is T1, TAP-tagged Bur2 (S. cerevisiae). In words: co-IP; data not shown; Bur1 and Bur2 co-immunoprecipitate, taken to show that the Bur2 pulldown holds both factors.

B1: 6×His epitope-tagged Cus2 (protein, UniProt P53830 1-285)
chain: T2 sequence
For B1, the binding entry in experiment [1] and in experiment [2] was “no binding” in each case.

B2: TAP-tagged Bur2 (protein, UniProt Q05949 1-395)
chain: T1 sequence
For the molecule B2, in experiment [3], the binding entry is on record as “no binding”.

B3: Bur1 (protein, UniProt P23293 1-657)
chain: MSDNGSPAVLPKTEFNKYKIGKVKSTPAIQRDAKTNLTYIKLRKRSSEKVYGCTVFQNHYREDEKLGQGTFGEVYKGIHLETQRQVAMKKIIVSVEKDLFPITAQREITILKRLNHKNIIKLIEMVYDHSPDITNAASSNLHKSFYMILPYMVADLSGVLHNPRINLEMCDIKNMMLQILEGLNYIHCAKFMHRDIKTANILIDHNGVLKLADFGLARLYYGCPPNLKYPGGAGSGAKYTSVVVTRWYRAPELVLGDKQYTTAVDIWGVGCVFAEFFEKKPILQGKTDIDQGHVIFKLLGTPTEEDWAVARYLPGAELTTTNYKPTLRERFGKYLSETGLDFLGQLLALDPYKRLTAMSAKHHPWFKEDPLPSEKITLPTEESHEADIKRYKEEMHQSLSQRVPTAPRGHIVEKGESPVVKNLGAIPRGPKKDDASFLPPSKNVLAKPPPSKIRELHQNPRPYHVNSGYAKTAIPPPAAPAGVNRYGPNNSSRNNRFSGNSTAPNNSRNPVNRFHPETNVSSKYNKVPLPLGPQSRYQGNSNESRYKNSPNDSRYHNPRYVNKPETNFNRQPQKYSRQESNAPINKNYNPSNGSRNMAGDHHQGSRPSHPQFPISPSQGQHQLTSKPIEKKNGSFKDERAKPDESKEFQNSDIADLY
For the molecule B3, in experiment [4], the binding result is on record as “binds”.
